Paper PMC10850381

Chains of the proteins cited; added tags and fusions are not shown. Lines headed by an entry give the natural chain unless they say otherwise; changes in a name come on top. Residues count along the entry.
UniProt P10909: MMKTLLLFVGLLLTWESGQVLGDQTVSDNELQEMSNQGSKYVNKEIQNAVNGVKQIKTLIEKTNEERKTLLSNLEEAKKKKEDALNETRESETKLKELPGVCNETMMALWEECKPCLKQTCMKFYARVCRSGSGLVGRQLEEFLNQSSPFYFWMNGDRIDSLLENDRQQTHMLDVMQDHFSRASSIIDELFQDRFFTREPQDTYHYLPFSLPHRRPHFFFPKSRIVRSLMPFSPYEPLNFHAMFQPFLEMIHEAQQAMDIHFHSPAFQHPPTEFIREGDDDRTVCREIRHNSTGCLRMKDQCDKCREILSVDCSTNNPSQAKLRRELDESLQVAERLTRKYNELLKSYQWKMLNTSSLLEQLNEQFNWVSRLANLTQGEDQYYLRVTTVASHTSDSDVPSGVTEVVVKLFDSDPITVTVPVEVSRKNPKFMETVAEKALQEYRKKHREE
UniProt P10643, residues 23-843: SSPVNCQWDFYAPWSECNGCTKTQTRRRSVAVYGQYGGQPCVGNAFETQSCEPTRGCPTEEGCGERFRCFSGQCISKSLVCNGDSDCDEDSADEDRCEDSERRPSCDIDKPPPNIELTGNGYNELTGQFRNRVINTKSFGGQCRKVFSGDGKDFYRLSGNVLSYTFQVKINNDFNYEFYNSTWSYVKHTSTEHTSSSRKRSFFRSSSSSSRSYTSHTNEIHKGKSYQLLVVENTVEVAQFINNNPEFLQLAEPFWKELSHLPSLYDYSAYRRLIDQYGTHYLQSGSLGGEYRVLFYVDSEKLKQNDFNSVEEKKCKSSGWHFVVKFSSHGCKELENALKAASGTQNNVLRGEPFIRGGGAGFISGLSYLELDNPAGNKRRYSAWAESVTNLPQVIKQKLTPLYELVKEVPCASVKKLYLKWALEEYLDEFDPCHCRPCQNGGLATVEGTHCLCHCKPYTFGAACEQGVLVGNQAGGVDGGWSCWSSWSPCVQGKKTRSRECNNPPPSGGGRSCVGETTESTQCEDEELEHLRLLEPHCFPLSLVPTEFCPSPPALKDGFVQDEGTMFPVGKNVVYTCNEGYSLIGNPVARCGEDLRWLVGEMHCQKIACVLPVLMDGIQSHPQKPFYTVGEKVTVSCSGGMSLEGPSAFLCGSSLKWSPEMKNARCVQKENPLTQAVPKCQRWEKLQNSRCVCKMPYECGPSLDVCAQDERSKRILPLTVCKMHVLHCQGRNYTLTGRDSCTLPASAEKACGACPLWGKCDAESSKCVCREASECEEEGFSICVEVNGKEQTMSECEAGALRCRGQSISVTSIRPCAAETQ

Legend:
[1] = target: Clusterin (human (endogenous in normal human serum)) (UniProt P10909); test: affinity purification with mass spectrometry; clusterin captured from pooled NHS on resin-coupled anti-clusterin antibody (pAb PC or mAb MC-2D5; Pierce Co-IP kit); 75 kDa band analysed by LC-MS
[2] = target: Complement C7 (human (endogenous in normal human serum)) (UniProt P10643); test: affinity purification with mass spectrometry; C7 captured from pooled NHS on resin-coupled anti-C7 antibody (pAb P7, mAb M7-WU4-15 or mAb M7-HB2H; Pierce Co-IP kit, overnight 4°C); eluate on non-reducing SDS-PAGE, 100 kDa and 75 kDa bands analysed by LC-MS

Row | binding [1] | binding [2] | Substance
1 | binds |  | Complement C7 (from UniProt P10643 23-843)
2 |  | binds | Clusterin (from UniProt P10909 23-227; P10909 228-449)

These are yes or no findings as the source states them, for the method shown. Binding seen in cells or lysates may run through a third protein. These calls come from enrichment with a bait or labelling near it, and not all partners need be listed.
